# In US20120107836A1, “DEVELOPMENT OF FLUORESCENTLY P-LOOP LABELLED KINASES FOR SCREENING OF INHIBITORS” (priority 2009, published 2012):
# The chains behind the UniProt entries cited, without tags or fusion partners.
# UniProt Q16539, whole entry Y35C/C119S/C162S/F327L: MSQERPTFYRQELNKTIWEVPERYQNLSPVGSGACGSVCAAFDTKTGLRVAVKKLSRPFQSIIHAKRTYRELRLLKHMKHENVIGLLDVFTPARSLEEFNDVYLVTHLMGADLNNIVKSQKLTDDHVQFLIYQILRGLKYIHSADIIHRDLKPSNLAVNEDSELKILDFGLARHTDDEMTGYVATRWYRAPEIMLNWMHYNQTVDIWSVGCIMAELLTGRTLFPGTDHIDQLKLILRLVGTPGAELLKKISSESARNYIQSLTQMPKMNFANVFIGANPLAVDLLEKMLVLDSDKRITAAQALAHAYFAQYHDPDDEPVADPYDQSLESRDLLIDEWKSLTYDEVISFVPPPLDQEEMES
# Some results were stated once for a whole list of compounds, not compound by compound.
# Target: T1, p38α (Homo sapiens, UniProt Q16539, C119S/C162S/F327L/Y35C)
# T1 construct: His-tag (N, cleaved yes); made in house; host or cells: E. coli BL21(DE3)
# Experiment: Real-time kinetic fluorescence measurements (475 nm) with P-loop acrylodan-labelled p38α in cuvettes
# Conditions: binding to P-loop labelled p38α
smiles,measurement,value
NC(=O)c1c(OCc2c(F)cc(Br)cc2F)nsc1NC(=O)NCCCCN1CCCC1 [CP547632],time of binding (real-time kinetic measurements),< 2 s
